Measured values taken from PMC5675994.
Results are given in words; binding and its absence hold for the method and conditions named. In cells and extracts the contact can be indirect. Here binding means that the protein was enriched with, or labelled near, the bait; the list need not be complete. For part of these data: Where a sequence is shown, tags or fusion partners need not be part of it.

By UniProt entry, the sequences of proteins in these tests, tags left out. Where a name states a change or a piece, a line headed by the entry shows the natural chain unless it says otherwise.
UniProt Q07540: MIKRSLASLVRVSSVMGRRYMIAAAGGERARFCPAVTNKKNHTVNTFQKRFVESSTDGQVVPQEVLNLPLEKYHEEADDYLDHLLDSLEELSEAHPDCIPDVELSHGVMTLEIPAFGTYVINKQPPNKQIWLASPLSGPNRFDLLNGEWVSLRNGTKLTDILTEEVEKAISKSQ

T1: Nfs1-His6 (S. cerevisiae) (UniProt P25374)
T1 sequence: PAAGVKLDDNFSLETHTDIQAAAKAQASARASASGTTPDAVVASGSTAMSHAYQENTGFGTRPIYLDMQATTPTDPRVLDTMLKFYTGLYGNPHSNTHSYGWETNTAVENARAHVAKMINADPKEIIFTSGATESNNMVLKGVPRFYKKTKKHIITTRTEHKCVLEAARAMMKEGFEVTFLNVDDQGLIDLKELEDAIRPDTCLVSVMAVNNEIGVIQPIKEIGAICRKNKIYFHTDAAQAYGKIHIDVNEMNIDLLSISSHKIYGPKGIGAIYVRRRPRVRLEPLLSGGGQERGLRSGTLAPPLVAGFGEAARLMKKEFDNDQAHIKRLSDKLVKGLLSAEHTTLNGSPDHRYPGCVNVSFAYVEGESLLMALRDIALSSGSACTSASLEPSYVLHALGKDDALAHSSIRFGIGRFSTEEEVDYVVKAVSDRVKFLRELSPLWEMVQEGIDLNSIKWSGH

B1: Lon protease homolog, mitochondrial (protein, UniProt P36775 99-1133)
chain: KDDSTSQKKDEDVKIVPDEKDTDNDVEPTRDDEIVNKDQEGEASKNSRSSASGGGQSSSSRSDSGDGSSKQKPPKDVPEVYPQMLALPIARRPLFPGFYKAVVISDERVMKAIKEMLDRQQPYIGAFMLKNSEEDTDVITDKNDVYDVGVLAQITSAFPSKDEKTGTETMTALLYPHRRIKIDELFPPNEEKEKSKEQAKDTDTETTVVEDANNPEDQESTSPATPKLEDIVVERIPDSELQHHKRVEATEEESEELDDIQEGEDINPTEFLKNYNVSLVNVLNLEDEPFDRKSPVINALTSEILKVFKEISQLNTMFREQIATFSASIQSATTNIFEEPARLADFAAAVSAGEEDELQDILSSLNIEHRLEKSLLVLKKELMNAELQNKISKDVETKIQKRQREYYLMEQLKGIKRELGIDDGRDKLIDTYKERIKSLKLPDSVQKIFDDEITKLSTLETSMSEFGVIRNYLDWLTSIPWGKHSKEQYSIPRAKKILDEDHYGMVDVKDRILEFIAVGKLLGKVDGKIICFVGPPGVGKTSIGKSIARALNRKFFRFSVGGMTDVAEIKGHRRTYIGALPGRVVQALKKCQTQNPLILIDEIDKIGHGGIHGDPSAALLEVLDPEQNNSFLDNYLDIPIDLSKVLFVCTANSLETIPRPLLDRMEVIELTGYVAEDKVKIAEQYLVPSAKKSAGLENSHVDMTEDAITALMKYYCRESGVRNLKKHIEKIYRKAALQVVKKLSIEDSPTSSADSKPKESVSSEEKAENNAKSSSEKTKDNNSEKTSDDIEALKTSEKINVSISQKNLKDYVGPPVYTTDRLYETTPPGVVMGLAWTNMGGCSLYVESVLEQPLHNCKHPTFERTGQLGDVMKESSRLAYSFAKMYLAQKFPENRFFEKASIHLHCPEGATPKDGPSAGVTMATSFLSLALNKSIDPTVAMTGELTLTGKVLRIGGLREKAVAAKRSGAKTIIFPKDNLNDWEELPDNVKEGLEPLAADWYNDIFQKLFKDVNTKEGNSVWKAEFEILDAKKEKD
B2: 5-AMP-activated protein kinase subunit gamma (protein, UniProt P12904 1-322)
chain: MKPTQDSQEKVSIEQQLAVESIRKFLNSKTSYDVLPVSYRLIVLDTSLLVKKSLNVLLQNSIVSAPLWDSKTSRFAGLLTTTDFINVIQYYFSNPDKFELVDKLQLDGLKDIERALGVDQLDTASIHPSRPLFEACLKMLESRSGRIPLIDQDEETHREIVVSVLTQYRILKFVALNCRETHFLKIPIGDLNIITQDNMKSCQMTTPVIDVIQMLTQGRVSSVPIIDENGYLINVYEAYDVLGLIKGGIYNDLSLSVGEALMRRSDDFEGVYTCTKNDKLSTIMDNIRKARVHRFFVVDDVGRLVGVLTLSDILKYILLGSN
B3: AMP deaminase (protein, UniProt P15274 1-810)
chain: MDNQATQRLNDLSLEPAPSHDEQDGSGLVIDIDQRKIGDEQAGVVVDDETPPLEQQDSHESLAADSRNANFSYHENQQLLENGTKQLALDEHDSHSAILEQPSHSTNCSSSNIAAMNKGHDSADHASQNSGGKPRTLSASAQHILPETLKSFAGAPVVNKQVRTSASYKMGMLADDASQQFLDDPSSELIDLYSKVAECRNLRAKYQTISVQNDDQNPKNKPGWVVYPPPPKPSYNSDTKTVVPVTNKPDAEVFDFTKCEIPGEDPDWEFTLNDDDSYVVHRSGKTDELIAQIPTLRDYYLDLEKMISISSDGPAKSFAYRRLQYLEARWNLYYLLNEYQETSVSKRNPHRDFYNVRKVDTHVHHSACMNQKHLLRFIKHKLRHSKDEKVIFRDGKLLTLDEVFRSLHLTGYDLSIDTLDMHAHKDTFHRFDKFNLKYNPIGESRLREIFLKTNNYIKGTYLADITKQVIFDLENSKYQNCEYRISVYGRSLDEWDKLASWVIDNKVISHNVRWLVQIPRLYDIYKKTGIVQSFQDICKNLFQPLFEVTKNPQSHPKLHVFLQRVIGFDSVDDESKVDRRFHRKYPKPSLWEAPQNPPYSYYLYYLYSNVASLNQWRAKRGFNTLVLRPHCGEAGDPEHLVSAYLLAHGISHGILLRKVPFVQYLYYLDQVGIAMSPLSNNALFLTYDKNPFPRYFKRGLNVSLSTDDPLQFSYTREPLIEEYSVAAQIYKLSNVDMCELARNSVLQSGWEAQIKKHWIGKDFDKSGVEGNDVVRTNVPDIRINYRYDTLSTELELVNHFANFKRTIEEK
B4: Mitochondrial acidic protein MAM33 (protein, UniProt P40513 48-266)
chain: QETQRVGDILQSELKIEKETLPESTSLDSFNDFLNKYKFSLVETPGKNEAEIVRRTESGETVHVFFDVAQIANLPYNNAMDENTEQNEDGINEDDFDALSDNFANVNVVISKESASEPAVSFELLMNLQEGSFYVDSATPYPSVDAALNQSAEAEITRELVYHGPPFSNLDEELQESLEAYLESRGVNEELASFISAYSEFKENNEYISWLEKMKKFFH
B5: Isocitrate dehydrogenase [NADP], mitochondrial (protein, UniProt P21954 17-428)
chain: FSKIKVKQPVVELDGDEMTRIIWDKIKKKLILPYLDVDLKYYDLSVESRDATSDKITQDAAEAIKKYGVGIKCATITPDEARVKEFNLHKMWKSPNGTIRNILGGTVFREPIVIPRIPRLVPRWEKPIIIGRHAHGDQYKATDTLIPGPGSLELVYKPSDPTTAQPQTLKVYDYKGSGVAMAMYNTDESIEGFAHSSFKLAIDKKLNLFLSTKNTILKKYDGRFKDIFQEVYEAQYKSKFEQLGIHYEHRLIDDMVAQMIKSKGGFIMALKNYDGDVQSDIVAQGFGSLGLMTSILVTPDGKTFESEAAHGTVTRHYRKYQKGEETSTNSIASIFAWSRGLLKRGELDNTPALCKFANILESATLNTVQQDGIMTKDLALACGNNERSAYVTTEEFLDAVEKRLQKEIKSIE
B6: Chromatin structure-remodeling complex subunit RSC9 (protein, UniProt Q03124 1-581)
chain: MNSLASNTPLNGTPVSEAPATSSEPVNMFETMVANPIKVSRLQSNGVLTGPAANTKSIHYSLANFNVFQSLPKETARGVDDLTRMEMALLSGIPEEIKWSLKKYLTYSNKAPYMISLRTLPDLLPLFKTFILPLERIVEGLNKSSICDSKAMDSLQMGLNALLILRNLAQDTDSVQILVKDREIKSFILFILKKFQCVATGDNKWQLYEGNATFFNELTHYTLDLMEAISSYIAPAMKDDHYFQTLVSILNYTKDRYMVISILRSLSRLLVRSKANEESAADNLDHKTLSLIVSFLLLECDSELIIASLDFLYQYILPGSQRITELFKSKECSLILEATLPNLLSYNIATPDYHLLQKHKIRLIKRLKPPAPKEPPNLSEDLFQQLFKLNEPLRSTAWLRCCFEPVQEAEFTQISLWRSYESKFGQPVRESGRKLLPAVEFIKNVSNAFNNAAAIVITDPVTGKKRFVIKGIQPRFKALGIADGERESQVPISALKSKFLNDSKEITPARQNSIPEVKFPQELSDVSKVACTFLCLLSNDTDDGAGSAFCQRIRPLVLHKLADIPPLTLALSEYMENTSGL
B7: Cysteine desulfurase, mitochondrial (enzyme, UniProt P25374 37-497)
chain: PAAGVKLDDNFSLETHTDIQAAAKAQASARASASGTTPDAVVASGSTAMSHAYQENTGFGTRPIYLDMQATTPTDPRVLDTMLKFYTGLYGNPHSNTHSYGWETNTAVENARAHVAKMINADPKEIIFTSGATESNNMVLKGVPRFYKKTKKHIITTRTEHKCVLEAARAMMKEGFEVTFLNVDDQGLIDLKELEDAIRPDTCLVSVMAVNNEIGVIQPIKEIGAICRKNKIYFHTDAAQAYGKIHIDVNEMNIDLLSISSHKIYGPKGIGAIYVRRRPRVRLEPLLSGGGQERGLRSGTLAPPLVAGFGEAARLMKKEFDNDQAHIKRLSDKLVKGLLSAEHTTLNGSPDHRYPGCVNVSFAYVEGESLLMALRDIALSSGSACTSASLEPSYVLHALGKDDALAHSSIRFGIGRFSTEEEVDYVVKAVSDRVKFLRELSPLWEMVQEGIDLNSIKWSGH
B8: Protein ZPS1 (protein, UniProt Q12512 21-249)
chain: APVTYDTNSTAELQSPSSQEILGWSHATFPTIYQTCNETNARMLNAAFKDTAEITAYGKDRLLNYGVDDVYYKRWFGNGSIFTVMGVFEQLMEASKGAMLMRCDDIDGLCAANPNYYAGHHRQSAPAETVICDYFYTSKKPLSTICFEGTIVDVGPKHYAGIDMLHRYLHVPTMSMDGYVGEYAETLEEVVDYTQNNATYAVRNTDNYLYYLADVYSASVIPGGCLGNL
B9: Protein HBT1 (protein, UniProt Q07653 1-1046)
chain: MNMNESISKDGQGEEEQNNFSFGGKPGSYDSNSDSAQRKKSFSTTKPTEYNLPKEQPESTSKNLETKAKNILLPWRKKHNKDSETPHEDTEADANRRANVTSDVNPVSADTKSSSGPNATITTHGYSYVKTTTPAATSEQSKVKTSPPTSHEHSNIKASPTAHRHSKGDAGHPSIATTHNHSTSKAATSPVTHTHGHSSATTSPVTHTHGHASVKTTSPTNTHEHSKANTGPSATATTHGHINVKTTHPVSHGHSGSSTGPKSTAAAQDHSSTKTNPSVTHGHTSVKDNSSATKGYSNTDSNSDRDVIPGSFRGMTGTDVNPVDPSVYTSTGPKSNVSSGMNAVDPSVYTDTSSKSADRRKYSGNTATGPPQDTIKEIAQNVKMDESEQTGLKNDQVSGSDAIQQQTMEPEPKAAVGTSGFVSQQPSYHDSNKNIQHPEKNKVDNKNISERAAEKFNIERDDILESADDYQQKNIKSKTDSNWGPIEYSSSAGKNKNLQDVVIPSSMKEKFDSGTSGSQNMPKAGTELGHMKYNDNGRDNLQYVAGSQAGSQNTNNNIDMSPRHEAEWSGLSNDATTRNNVVSPAMKDEDMNEDSTKPHQYGLDYLDDVEDYHENDIDDYSNAKKNDLYSKKAYQGKPSDYNYEQREKIPGTFEPDTLSKSVQKQDEDPLSPRQTTNRAGMETARDESLGNYEYSNTSGNKKLSDLSKNKSGPTPTRSNFIDQIEPRRAKTTQDIASDAKDFTNNPETGTTGNVDTTGRMGAKSKTFSSNPFDDSKNTDTHLENANVAAFDNSRSGDTTYSKSGDAETAAYDNIKNADPTYAKSQDITGMTHDQEPSSEQKASYGSGGNSQNQEYSSDDNIDVNKNAKVLEEDAPGYKREVDLKNKRRTDLGGADASNAYAAEVGNFPSLIDPHVPTYGFKDTNTSSSQKPSEGTYPETTSYSIHNETTSQGRKVSVGSMGSGKSKHHHNHHRHSRQNSSKGSDYDYNNSTHSAEHTPRHHQYGSDEGEQDYHDDEQGEEQAGKQSFMGRVRKSISGGTFGFRSEI

Target: T1, Nfs1-His6 (S. cerevisiae)
Test: affinity purification with mass spectrometry; Nfs1-His6 held on Ni-NTA superflow agarose from sonicated, cleared lysate of isolated mitochondria of the Gal-Nfs1-His6 yeast strain; 50 mM TrisCl pH 7.5, 80 mM KCl, 10% glycerol, wash 40 mM imidazole, elution 400 mM imidazole; eluate analysed by LC-MS/MS

Question: With B1 as the binder, how does the binding read?
Answer: binds

Question: For B2, which binding is on record?
Answer: binds

Question: For B3, which binding is on record?
Answer: binds

Question: Which binding does the source give for B4 here?
Answer: binds

Question: With B5 as the binder, how does the binding read?
Answer: binds

Question: Which binding does the source give for B6 here?
Answer: binds

Target: Yfh1-His6 (S. cerevisiae) (UniProt Q07540)
Test: affinity purification with mass spectrometry; Yfh1-His6 held on Ni-NTA superflow agarose from French-press lysate (108,000xg supernatant) of isolated mitochondria of the Yfh1-His6 yeast strain; 50 mM TrisCl pH 7.5, 80 mM KCl, 10% glycerol, wash 40 mM imidazole with 0.1% Triton X-100, elution 400 mM imidazole; eluate analysed by LC-MS/MS

Question: For B7, which binding is on record?
Answer: binds

Question: How did the binding turn out when B8 was run?
Answer: binds

Question: B9 was tested. Which binding did it give?
Answer: binds
